The test can be described thus: qHTS Assay for Lipid Storage Modulators in Drosophila S3 Cells.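 For cell number change: cells counted by Cell Tracker Red CMTPX staining in the red channel.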 The settings on record: BODIPY lipid droplet fluorescence, 18-24 h; for cell number change: measured here: cell count max response, cells fed with added oleic acid. An outline of the steps:
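Drosophila S3 cells got compounds at several concentrations plus oleic acid (400 uM solution). Laser-scanning cytometry with 488 nm excitation read lipid droplets at 500-530 nm and cells at 575-640 nm. Percent activity was relative to 20 uM Triacsin C.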

[1] abbreviates: measured here: cell number channel AC50, cells fed with added oleic acid.
The mark [2] stands for this setting: measured here: lipid fluorescence (Fed channel) AC50, cells fed with added oleic acid.

Molecules are shown by their SMILES. This is one part of the list. Shown are side measurements of this screen, not its main read-out; they come without a call. The list favours compounds with an active or inconclusive main result. Words in brackets tell the shape of the fitted curve; partial curves, single points and poor fits give uncertain potencies.

By AC50 is commonly meant the midpoint of the concentration-response curve, whichever way the signal moves. Lower therefore signals greater potency.

Take `CCOc1ccc(-c2c(C(=O)N/N=C(\C)c3ccncc3)nnn2-c2nonc2N)cc1`: the cell number change was 2.99%.
Take `Nc1nc(SCc2ccc3c(c2)OCO3)n[nH]1`: the cell number change was found to be 68.9%. Moreover, the AC50 under setting [1] was 23.1 µM [rising, partial curve]. Besides, the AC50 under setting [2] was 0.326 µM [rising, full curve].
With `C=CCOc1cccc(C2c3c(oc4ccc(F)cc4c3=O)C(=O)N2CCCN2CCOCC2)c1` (stereo not drawn), the cell number change is -1.04%. In addition, the AC50 under setting [2] was 0.13 µM [falling, full curve, poor fit].
As for `O=C1CN(C(=O)OCc2ccccc2)c2ccccc2N1`, the cell number change worked out at 51%. Under setting [1], the AC50 is 25.9 µM [rising, single point].
As to `O=C(NCCc1nc2ccccc2[nH]1)c1cccc(Br)c1`, the cell number change was -31.5%. Moreover, the AC50 under setting [1] is 11.2 µM [falling, partial curve]. Further, the AC50 under setting [2] was 12.6 µM [falling, single point].
As to `CCN(CC(=O)Nc1ccccc1C(F)(F)F)C(=O)COc1cccc2c1OC(C)(C)C2`, the cell number change came out at 10.5%.
Turning to `Nc1c(C(=O)OCC(=O)Nc2ccc(Cl)cc2[N+](=O)[O-])[nH]c(=O)[nH]c1=O`, the cell number change worked out at 15.5%. Further, under setting [2], the AC50 was 32.6 µM [rising, single point].
On to `CN(C)/N=C/c1ccc(/C=N/NC(N)=S)o1`, for which the cell number change is -52%. The AC50 under setting [1] was 32.6 µM [falling, partial curve, poor fit].
For `COCCn1c(SCC(=O)c2ccc(Cl)cc2)nnc1C(C)C`, the cell number change was -13.6%. The AC50 under setting [1] was 0.103 µM [falling, full curve, poor fit]. Further, the AC50 under setting [2] was 6.51 µM [falling, single point].
Take `CCN(CC)S(=O)(=O)c1ccc2oc(C(=O)NCCN3CCOCC3)c(C)c2c1`: the cell number change was determined as 10%. In addition, the AC50 under setting [2] was 1.03 µM [rising, single point].
Consider `O=C(Nc1cccc(NC(=O)c2ccco2)c1)c1ccc2c(c1)OCO2`, for which the cell number change was -6.07%. Further, the AC50 under setting [2] is 0.58 µM [falling, single point].
Consider `CC1CC(C)CN(C(=O)c2cc3c(=O)n4ccccc4nc3s2)C1` (stereo not drawn), for which the cell number change was -31.7%. The AC50 under setting [1] was 14.6 µM [falling, partial curve, poor fit].
`Cc1nn(C)c(C)c1Nc1ccc(N2C(=O)C3CC=CCC3C2=O)cc1[N+](=O)[O-]` (stereo not drawn): the cell number change stood at 7.55%.
For the compound `COc1ccc(S(=O)(=O)NC(CC(C)C)C(=O)NC(C)c2cccs2)cc1` (stereo not drawn), the cell number change was 14.6%. Besides, the AC50 under setting [2] was 16.4 µM [falling, single point].
On to `CC(C)OC1(c2ccccc2)OC(=O)c2ccccc21` (stereo not drawn), for which the cell number change was determined as 4.62%. Besides, under setting [2], the AC50 was 11.6 µM [rising, single point].
As to `Cc1ccc(S(=O)(=O)NCCC(=O)NCCCSc2ccccc2)cc1`, the AC50 under setting [2] was 9.2 µM [falling, partial curve].
For `Cc1ccc(-c2nc(=S)c3c(n2Cc2ccco2)CC(C)(C)OC3)cc1`, the cell number change was -16.7%. Moreover, the AC50 under setting [2] was 2.06 µM [falling, partial curve].

These data come from PubChem BioAssay AID2685 (National Center for Advancing Translational Sciences (NCATS), 2010).
